These are yes or no findings as the source states them, for the method shown.
Key:
MatP [1] = biological target: T1, MatP (Escherichia coli, UniProt P0A8N0 1-150); experiment: native gel or EMSA; matS DNA probe with MatP and added purified ZapB, 3 µM of proteins (Supplementary Fig. 9); 10 mM Tris pH 7.5, 125 mM NaCl, 2.5 mM MgCl2, 0.5 mM DTT, 5% glycerol; 30 °C for 30 min; 5% native TGE-PAGE; both purified
T1 sequence: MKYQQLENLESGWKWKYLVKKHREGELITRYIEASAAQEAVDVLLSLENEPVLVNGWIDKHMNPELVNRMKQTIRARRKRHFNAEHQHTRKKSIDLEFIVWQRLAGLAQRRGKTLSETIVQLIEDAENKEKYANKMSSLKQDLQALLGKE

MatP [2] = biological target: T1, MatP; experiment: condition: ZapB from 2 to 20 μM, MatP from 1 to 6 μM; pull-down; biotinylated DNA on streptavidin magnetic beads plus free DNA; MatP 1 to 6 µM with or without ZapB 2 to 20 µM; RB2 (20 mM Tris pH 7.5, 1 mM MgCl2, 150 mM NaCl, 1 mg/mL BSA), RT; eluted with 0.1% SDS; read by agarose gel (DNAf recovered) and SDS-PAGE with anti-His western blot; both purified

- binding (MatP [1]): no binding (tested: 3 µM of proteins)
- binding (MatP [2]): no binding
B1: ZapB (protein, UniProt P0AF36 1-81)
chain: MTMSLEVFEKLEAKVQQAIDTITLLQMEIEELKEKNNSLSQEVQNAQHQREELERENNHLKEQQNGWQERLQALLGRMEEV

— paper PMC7394560, “Post-replicative pairing of sister ter regions in Escherichia coli involves multiple activities of MatP” (Nature Communications, 2020)
